Where two headings read alike, the source gives them in different places. Results are given in words; binding and its absence hold for the method and conditions named. In cells and extracts the contact can be indirect. Some entries that bind do so weakly or less than the wild type. Where a sequence is shown, tags or fusion partners need not be part of it.
What was measured:
Test in all cases: co-IP; lysates of cells transfected with PPP2R2B-FLAG or vector control; anti-FLAG magnetic beads or Protein A/G magnetic beads plus anti-PPP2R2B, anti-IPO5 or anti-ISG15 antibody overnight at 4 °C; eluted in SDS buffer; western blot; with and without PPP2R2B overexpression
[1] = biological target: T1, PPP2R2B-FLAG (serine/threonine protein phosphatase 2A regulatory subunit PPP2R2B) (human) (UniProt Q00005)
T1 sequence: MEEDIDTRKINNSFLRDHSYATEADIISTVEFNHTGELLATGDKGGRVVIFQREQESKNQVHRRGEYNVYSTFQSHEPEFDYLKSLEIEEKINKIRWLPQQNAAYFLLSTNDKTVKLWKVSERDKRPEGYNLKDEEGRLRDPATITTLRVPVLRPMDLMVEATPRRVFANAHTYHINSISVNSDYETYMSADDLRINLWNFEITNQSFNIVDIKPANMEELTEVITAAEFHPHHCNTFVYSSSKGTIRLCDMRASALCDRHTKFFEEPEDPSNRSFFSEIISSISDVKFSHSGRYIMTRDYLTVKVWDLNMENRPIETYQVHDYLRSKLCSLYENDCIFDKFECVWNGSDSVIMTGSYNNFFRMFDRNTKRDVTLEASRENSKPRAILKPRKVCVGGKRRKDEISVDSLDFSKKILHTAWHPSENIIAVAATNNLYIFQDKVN

By UniProt entry, the sequences of proteins in these tests, tags left out. Residues count along the entry.
UniProt P05161, residues 1-157: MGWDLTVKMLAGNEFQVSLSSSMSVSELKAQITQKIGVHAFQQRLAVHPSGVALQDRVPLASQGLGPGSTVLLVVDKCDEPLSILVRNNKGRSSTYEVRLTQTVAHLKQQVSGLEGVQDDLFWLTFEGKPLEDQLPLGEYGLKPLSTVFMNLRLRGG

[2] = biological target: T1, PPP2R2B-FLAG (serine/threonine protein phosphatase 2A regulatory subunit PPP2R2B) (human); remark: listed apart in the source
[3] = biological target: T2, importin 5 (IPO5) (human (endogenous in the human cell lines used)) (UniProt O00410)
T2 sequence: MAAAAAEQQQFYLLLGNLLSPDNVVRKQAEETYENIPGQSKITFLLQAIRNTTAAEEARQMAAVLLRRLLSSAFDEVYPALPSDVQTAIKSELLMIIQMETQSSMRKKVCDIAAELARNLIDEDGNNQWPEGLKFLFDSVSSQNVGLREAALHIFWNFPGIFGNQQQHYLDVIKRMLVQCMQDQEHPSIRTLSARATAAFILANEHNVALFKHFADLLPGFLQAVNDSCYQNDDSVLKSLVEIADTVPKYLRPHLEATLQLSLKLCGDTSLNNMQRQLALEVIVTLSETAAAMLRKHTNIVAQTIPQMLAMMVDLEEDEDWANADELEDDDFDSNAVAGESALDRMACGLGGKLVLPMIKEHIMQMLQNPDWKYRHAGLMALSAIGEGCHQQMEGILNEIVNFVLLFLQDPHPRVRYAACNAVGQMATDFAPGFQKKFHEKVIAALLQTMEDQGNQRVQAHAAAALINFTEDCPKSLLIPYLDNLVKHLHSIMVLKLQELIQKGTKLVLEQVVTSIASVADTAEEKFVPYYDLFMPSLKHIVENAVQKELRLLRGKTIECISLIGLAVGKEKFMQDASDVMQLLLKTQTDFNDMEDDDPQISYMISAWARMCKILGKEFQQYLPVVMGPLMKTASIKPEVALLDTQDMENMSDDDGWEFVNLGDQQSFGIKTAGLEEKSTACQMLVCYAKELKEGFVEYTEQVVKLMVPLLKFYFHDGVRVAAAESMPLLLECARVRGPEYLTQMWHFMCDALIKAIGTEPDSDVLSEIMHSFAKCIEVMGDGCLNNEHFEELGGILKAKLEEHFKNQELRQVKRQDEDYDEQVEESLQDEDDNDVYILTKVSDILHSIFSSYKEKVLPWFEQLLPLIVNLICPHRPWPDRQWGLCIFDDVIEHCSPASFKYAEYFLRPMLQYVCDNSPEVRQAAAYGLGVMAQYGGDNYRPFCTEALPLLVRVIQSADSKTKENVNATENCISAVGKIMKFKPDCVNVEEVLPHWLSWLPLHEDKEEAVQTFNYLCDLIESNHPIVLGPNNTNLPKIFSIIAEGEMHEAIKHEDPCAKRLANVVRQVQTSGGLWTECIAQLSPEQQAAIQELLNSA

interferon stimulated gene 15 (ISG15) (from UniProt P05161 1-157)
binding [1]: binds

B1: importin 5 (IPO5) (protein, UniProt O00410 1-1097)
chain: T2 sequence
binding [2]: binds

B2: PPP2R2B-FLAG (serine/threonine protein phosphatase 2A regulatory subunit PPP2R2B) (protein, UniProt Q00005 1-443)
chain: T1 sequence
binding [3]: binds
